According to paper PMC2391170:
Results are given in words; binding and its absence hold for the method and conditions named. Some entries that bind do so weakly or less than the wild type.

Key:
Assay in all cases: two-hybrid; AD (pGAD-C(1)) and BD (pGBD-C(1)) fusions in yeast PJ69-4; dual transformants tested on media lacking leucine, tryptophan and adenine; positive if all tested colonies (4 to 10) grew; both combinations of clones tested whenever possible
[1] = target: T1, AtFIPS5 (Arabidopsis) (UniProt F4KDH9)
T1 sequence: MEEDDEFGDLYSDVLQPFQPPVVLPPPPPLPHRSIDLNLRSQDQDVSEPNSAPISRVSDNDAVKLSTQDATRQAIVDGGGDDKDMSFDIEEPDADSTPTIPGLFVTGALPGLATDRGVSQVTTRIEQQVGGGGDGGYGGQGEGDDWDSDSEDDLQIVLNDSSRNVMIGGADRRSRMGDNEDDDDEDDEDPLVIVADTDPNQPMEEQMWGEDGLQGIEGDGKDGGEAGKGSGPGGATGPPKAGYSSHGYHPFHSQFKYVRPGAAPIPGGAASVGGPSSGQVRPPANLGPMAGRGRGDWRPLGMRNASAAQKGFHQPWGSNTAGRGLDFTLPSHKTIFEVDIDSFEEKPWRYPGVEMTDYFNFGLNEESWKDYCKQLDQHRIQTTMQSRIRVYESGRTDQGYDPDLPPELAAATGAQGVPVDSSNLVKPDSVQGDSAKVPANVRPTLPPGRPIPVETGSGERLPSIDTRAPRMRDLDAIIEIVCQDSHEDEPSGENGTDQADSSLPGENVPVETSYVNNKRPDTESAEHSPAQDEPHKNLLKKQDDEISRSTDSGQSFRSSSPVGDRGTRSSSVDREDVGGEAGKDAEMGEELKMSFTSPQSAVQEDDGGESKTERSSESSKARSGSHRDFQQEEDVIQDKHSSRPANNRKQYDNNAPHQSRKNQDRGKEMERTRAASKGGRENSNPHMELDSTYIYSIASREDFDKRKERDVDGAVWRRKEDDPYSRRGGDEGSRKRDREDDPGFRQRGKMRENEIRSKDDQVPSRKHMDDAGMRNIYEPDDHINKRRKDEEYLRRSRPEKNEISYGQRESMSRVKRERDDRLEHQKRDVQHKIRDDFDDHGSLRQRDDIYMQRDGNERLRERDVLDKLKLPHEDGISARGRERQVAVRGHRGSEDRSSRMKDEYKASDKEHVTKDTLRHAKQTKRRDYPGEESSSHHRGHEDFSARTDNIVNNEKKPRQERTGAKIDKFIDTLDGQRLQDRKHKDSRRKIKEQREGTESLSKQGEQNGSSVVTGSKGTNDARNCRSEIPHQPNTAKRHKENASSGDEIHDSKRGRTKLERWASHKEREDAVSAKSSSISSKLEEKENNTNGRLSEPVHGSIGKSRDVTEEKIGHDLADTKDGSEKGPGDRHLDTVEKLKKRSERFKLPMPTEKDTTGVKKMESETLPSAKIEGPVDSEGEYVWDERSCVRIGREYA

[2] = target: T2, AtFIPS3 (Arabidopsis) (UniProt F4JC20)
T2 sequence: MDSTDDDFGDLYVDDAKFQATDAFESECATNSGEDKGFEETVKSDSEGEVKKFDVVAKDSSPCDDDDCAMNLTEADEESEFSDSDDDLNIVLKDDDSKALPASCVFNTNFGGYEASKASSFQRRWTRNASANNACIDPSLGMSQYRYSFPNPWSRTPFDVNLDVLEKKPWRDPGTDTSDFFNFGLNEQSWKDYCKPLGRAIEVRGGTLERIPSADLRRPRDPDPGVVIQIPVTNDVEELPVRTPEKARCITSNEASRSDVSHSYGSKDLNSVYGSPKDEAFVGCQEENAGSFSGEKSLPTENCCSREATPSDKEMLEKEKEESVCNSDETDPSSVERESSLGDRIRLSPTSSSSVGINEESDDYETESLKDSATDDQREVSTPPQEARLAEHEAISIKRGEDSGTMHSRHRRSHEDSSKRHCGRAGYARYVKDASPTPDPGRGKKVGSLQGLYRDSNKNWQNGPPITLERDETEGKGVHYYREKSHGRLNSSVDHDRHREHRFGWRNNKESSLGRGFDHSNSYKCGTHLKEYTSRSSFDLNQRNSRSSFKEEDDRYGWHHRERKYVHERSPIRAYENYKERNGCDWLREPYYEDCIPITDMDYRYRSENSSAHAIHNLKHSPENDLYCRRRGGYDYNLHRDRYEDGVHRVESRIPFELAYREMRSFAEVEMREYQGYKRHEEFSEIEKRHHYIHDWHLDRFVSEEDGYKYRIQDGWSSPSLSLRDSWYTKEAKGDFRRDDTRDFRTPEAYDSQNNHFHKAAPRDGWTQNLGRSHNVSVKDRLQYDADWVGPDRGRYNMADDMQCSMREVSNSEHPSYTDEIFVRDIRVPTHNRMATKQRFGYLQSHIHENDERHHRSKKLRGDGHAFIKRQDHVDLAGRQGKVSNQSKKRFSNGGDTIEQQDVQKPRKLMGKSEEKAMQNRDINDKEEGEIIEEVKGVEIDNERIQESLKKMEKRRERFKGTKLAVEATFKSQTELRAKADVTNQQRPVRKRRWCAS

[3] = target: T3, AtCSTF77 (Arabidopsis) (UniProt Q8GUP1)
T3 sequence: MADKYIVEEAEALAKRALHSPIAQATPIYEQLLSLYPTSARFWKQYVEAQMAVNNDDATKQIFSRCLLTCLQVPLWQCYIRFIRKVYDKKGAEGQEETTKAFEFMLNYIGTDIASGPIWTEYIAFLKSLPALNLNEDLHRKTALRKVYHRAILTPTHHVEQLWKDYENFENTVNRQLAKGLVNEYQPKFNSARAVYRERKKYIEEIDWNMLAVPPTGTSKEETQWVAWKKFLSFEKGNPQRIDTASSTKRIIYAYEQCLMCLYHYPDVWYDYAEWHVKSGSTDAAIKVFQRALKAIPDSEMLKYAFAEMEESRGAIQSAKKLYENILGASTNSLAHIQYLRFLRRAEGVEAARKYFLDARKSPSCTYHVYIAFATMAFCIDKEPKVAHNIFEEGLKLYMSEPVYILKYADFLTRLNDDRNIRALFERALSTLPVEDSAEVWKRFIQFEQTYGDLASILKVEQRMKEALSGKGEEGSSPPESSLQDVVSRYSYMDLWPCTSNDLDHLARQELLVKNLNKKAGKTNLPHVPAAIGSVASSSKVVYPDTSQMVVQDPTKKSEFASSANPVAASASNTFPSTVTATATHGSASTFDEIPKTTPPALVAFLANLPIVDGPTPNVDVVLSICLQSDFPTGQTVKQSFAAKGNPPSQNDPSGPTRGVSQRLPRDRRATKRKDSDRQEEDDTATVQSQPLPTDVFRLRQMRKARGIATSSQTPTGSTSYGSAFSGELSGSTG

[4] = target: T4, AtCSTF64 (Arabidopsis) (UniProt Q9M9G6)
T4 sequence: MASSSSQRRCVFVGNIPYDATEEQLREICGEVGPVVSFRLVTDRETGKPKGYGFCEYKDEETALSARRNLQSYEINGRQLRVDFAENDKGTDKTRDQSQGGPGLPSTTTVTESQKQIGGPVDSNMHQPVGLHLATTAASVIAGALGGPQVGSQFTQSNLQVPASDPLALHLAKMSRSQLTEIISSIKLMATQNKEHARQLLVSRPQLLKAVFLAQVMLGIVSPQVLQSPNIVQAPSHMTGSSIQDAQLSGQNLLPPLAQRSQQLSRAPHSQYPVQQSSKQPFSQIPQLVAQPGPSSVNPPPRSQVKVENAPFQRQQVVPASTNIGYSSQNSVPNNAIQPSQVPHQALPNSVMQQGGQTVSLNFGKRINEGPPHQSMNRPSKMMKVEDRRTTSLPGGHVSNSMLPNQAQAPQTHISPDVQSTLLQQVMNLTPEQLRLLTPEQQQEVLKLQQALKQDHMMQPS

B1: AtCLPS5 (protein, UniProt Q9FLE2 1-424)
chain: MFGPQIRRVKLEKQSELRIELQPTSPLRLRLLDGKAEIFGYELPHEVWITFPPLMTFAVFTWYGATIEIDGITGNEYISCETPMVNYLGLHNSLQVQRHRVTSSTRDSASSQEGPRVIIVGDIDSGKSTLAKMLLNWAVKDGWKPTFVDLNVGQSSITIPGTIAAAPIKMLVDPVEGFPLDKALIHYFGLTNPSVNLRLYRTLVEELARELKEEFSANAESRASGMVIDTMGFIVREGYALLLHAIRTFNASLVIVVGQEEKLVYDLKKNLKFKKNLQVLNLEKSEGVFSRSSDFRKTLRNSNIQNYFYGVTNDLTVYTKTVKFSDVQVYRIGDFRVSGSTSAHQRGNDPLKITLVTIDEHLVNKVLAISYAIKPDQIISSIVAGFVCIKNVDISEERITYVSPSAAELPSKILILGTLTWHVT
binding [1]: binds | binding [2]: binds

B2: AtPCFS5 (protein, UniProt Q9FIX8 1-410)
chain: MASNGSFSAQRNANAGTTMKRRNDNRGYGGGIGCYQEERNRYAPPQKRFRSQLQQQFRSGHNPLYHYGSNTNNNVSRVSSQSYNNYGVDVIASNSSFALPNNDSNTNNYQKPFVVYGNPNPQIVPLPLPYRKLDPLDSLPQWVPNSTPNYPVRSSNFVPNTPDFTNVQNPMNHSNMVSVVSQSMHQPIVLSKELTDLLSLLNNEKEKKTSEASNNDSLPVGLSFDNPSSLNVRHESVIKSLYSDMPRQCTSCGVRFKCQEEHSKHMDWHVRKNRSVKTTTRLGQQPKKSRGWLASASLWLCAPTGGGTVEVASFGGGEMQKKNEKDQVQKQHMVPADEDQKNCALCVEPFEEFFSHEADDWMYKDAVYLTKNGRIVHVKCMPEPRPAKDLREPSRVMSVTVPSVAKAILC
binding [3]: binds

B3: AtCSTF50 (protein, UniProt Q8L4J2 1-429)
chain: MGNSGDLEQALQDGNIFRQLNALIVAHLRHHNLSQVASAVASATMTPLNIEVPPNRLLELVAKGLAAENNGTLRGVSSSVLLPSSYGSITTPRTASIDFSVNHAKGSSKTIPKHESKTLSEHKSVVRCARFSPDGMFFATGGADTSIKLFEVPKVKQMISGDTQARPLIRTFYDHAEPINDLDFHPRSTILISSAKDNCIKFFDFSKTTAKRAFKVFQDTHNVRSISFHPSGEFLLAGTDHPIPHLYDVNTYQCFLPSNFPDSGVSGAINQVRYSSTGSIYITASKDGAIRLFDGVSAKCVRSIGNAHGKSEVTSAVFTKDQRFVLSSGKDSTVKLWEIGSGRMVKEYLGAKRVKLRSQAIFNDTEEFVISIDEASNEVVTWDARTADKVAKWPSNHNGAPRWIEHSPVESVFVTCGIDRSIRFWKESV
binding [4]: binds | binding [3]: no binding

B4: AtCSTF77 (protein, UniProt Q8GUP1 1-734)
chain: MADKYIVEEAEALAKRALHSPIAQATPIYEQLLSLYPTSARFWKQYVEAQMAVNNDDATKQIFSRCLLTCLQVPLWQCYIRFIRKVYDKKGAEGQEETTKAFEFMLNYIGTDIASGPIWTEYIAFLKSLPALNLNEDLHRKTALRKVYHRAILTPTHHVEQLWKDYENFENTVNRQLAKGLVNEYQPKFNSARAVYRERKKYIEEIDWNMLAVPPTGTSKEETQWVAWKKFLSFEKGNPQRIDTASSTKRIIYAYEQCLMCLYHYPDVWYDYAEWHVKSGSTDAAIKVFQRALKAIPDSEMLKYAFAEMEESRGAIQSAKKLYENILGASTNSLAHIQYLRFLRRAEGVEAARKYFLDARKSPSCTYHVYIAFATMAFCIDKEPKVAHNIFEEGLKLYMSEPVYILKYADFLTRLNDDRNIRALFERALSTLPVEDSAEVWKRFIQFEQTYGDLASILKVEQRMKEALSGKGEEGSSPPESSLQDVVSRYSYMDLWPCTSNDLDHLARQELLVKNLNKKAGKTNLPHVPAAIGSVASSSKVVYPDTSQMVVQDPTKKSEFASSANPVAASASNTFPSTVTATATHGSASTFDEIPKTTPPALVAFLANLPIVDGPTPNVDVVLSICLQSDFPTGQTVKQSFAAKGNPPSQNDPSGPTRGVSQRLPRDRRATKRKDSDRQEEDDTATVQSQPLPTDVFRLRQMRKARGIATSSQTPTGSTSYGSAFSGELSGSTG
binding [1]: binds | binding [4]: binds
